Results as given in the supplement of paper PMC12067093, “Discovery and optimisation of a covalent ligand for TRIM25 and its application to targeted protein ubiquitination” (Chemical Science, 2025).
The other results are listed elsewhere or left out.

Amino acid sequences for entries named in this document (tags omitted). A change or cut given only in a name is not applied to a line headed by its entry.
UniProt Q86UK7: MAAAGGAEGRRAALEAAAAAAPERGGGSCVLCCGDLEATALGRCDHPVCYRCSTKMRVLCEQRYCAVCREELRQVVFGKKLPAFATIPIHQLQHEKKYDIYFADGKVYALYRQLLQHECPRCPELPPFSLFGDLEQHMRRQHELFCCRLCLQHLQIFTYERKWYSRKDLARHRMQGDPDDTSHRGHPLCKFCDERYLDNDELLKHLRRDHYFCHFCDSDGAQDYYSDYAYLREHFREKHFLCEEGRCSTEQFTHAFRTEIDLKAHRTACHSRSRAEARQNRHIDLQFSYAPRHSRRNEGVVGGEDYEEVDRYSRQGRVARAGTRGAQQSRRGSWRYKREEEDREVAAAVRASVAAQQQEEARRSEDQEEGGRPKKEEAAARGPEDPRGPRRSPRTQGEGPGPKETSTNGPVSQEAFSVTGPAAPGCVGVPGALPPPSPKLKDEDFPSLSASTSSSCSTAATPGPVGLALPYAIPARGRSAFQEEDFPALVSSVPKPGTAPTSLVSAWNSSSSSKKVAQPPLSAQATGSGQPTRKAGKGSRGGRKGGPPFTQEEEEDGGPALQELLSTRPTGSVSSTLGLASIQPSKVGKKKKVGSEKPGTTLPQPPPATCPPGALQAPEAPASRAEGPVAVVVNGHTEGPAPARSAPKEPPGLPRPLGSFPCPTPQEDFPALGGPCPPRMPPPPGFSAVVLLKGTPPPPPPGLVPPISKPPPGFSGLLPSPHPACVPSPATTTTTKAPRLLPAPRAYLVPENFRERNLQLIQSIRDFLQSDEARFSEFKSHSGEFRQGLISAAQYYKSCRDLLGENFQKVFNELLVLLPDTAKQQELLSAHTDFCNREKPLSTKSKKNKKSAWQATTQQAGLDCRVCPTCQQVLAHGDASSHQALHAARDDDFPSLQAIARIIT
UniProt Q5VV52: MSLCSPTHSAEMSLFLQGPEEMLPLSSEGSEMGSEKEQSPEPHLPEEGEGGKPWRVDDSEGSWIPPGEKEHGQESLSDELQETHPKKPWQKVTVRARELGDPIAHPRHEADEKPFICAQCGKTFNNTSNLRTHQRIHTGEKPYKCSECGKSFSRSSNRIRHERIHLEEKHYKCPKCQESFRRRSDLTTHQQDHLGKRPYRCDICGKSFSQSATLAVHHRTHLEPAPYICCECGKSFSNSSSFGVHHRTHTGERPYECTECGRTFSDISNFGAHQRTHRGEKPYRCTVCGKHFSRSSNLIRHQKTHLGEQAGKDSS
UniProt Q92610: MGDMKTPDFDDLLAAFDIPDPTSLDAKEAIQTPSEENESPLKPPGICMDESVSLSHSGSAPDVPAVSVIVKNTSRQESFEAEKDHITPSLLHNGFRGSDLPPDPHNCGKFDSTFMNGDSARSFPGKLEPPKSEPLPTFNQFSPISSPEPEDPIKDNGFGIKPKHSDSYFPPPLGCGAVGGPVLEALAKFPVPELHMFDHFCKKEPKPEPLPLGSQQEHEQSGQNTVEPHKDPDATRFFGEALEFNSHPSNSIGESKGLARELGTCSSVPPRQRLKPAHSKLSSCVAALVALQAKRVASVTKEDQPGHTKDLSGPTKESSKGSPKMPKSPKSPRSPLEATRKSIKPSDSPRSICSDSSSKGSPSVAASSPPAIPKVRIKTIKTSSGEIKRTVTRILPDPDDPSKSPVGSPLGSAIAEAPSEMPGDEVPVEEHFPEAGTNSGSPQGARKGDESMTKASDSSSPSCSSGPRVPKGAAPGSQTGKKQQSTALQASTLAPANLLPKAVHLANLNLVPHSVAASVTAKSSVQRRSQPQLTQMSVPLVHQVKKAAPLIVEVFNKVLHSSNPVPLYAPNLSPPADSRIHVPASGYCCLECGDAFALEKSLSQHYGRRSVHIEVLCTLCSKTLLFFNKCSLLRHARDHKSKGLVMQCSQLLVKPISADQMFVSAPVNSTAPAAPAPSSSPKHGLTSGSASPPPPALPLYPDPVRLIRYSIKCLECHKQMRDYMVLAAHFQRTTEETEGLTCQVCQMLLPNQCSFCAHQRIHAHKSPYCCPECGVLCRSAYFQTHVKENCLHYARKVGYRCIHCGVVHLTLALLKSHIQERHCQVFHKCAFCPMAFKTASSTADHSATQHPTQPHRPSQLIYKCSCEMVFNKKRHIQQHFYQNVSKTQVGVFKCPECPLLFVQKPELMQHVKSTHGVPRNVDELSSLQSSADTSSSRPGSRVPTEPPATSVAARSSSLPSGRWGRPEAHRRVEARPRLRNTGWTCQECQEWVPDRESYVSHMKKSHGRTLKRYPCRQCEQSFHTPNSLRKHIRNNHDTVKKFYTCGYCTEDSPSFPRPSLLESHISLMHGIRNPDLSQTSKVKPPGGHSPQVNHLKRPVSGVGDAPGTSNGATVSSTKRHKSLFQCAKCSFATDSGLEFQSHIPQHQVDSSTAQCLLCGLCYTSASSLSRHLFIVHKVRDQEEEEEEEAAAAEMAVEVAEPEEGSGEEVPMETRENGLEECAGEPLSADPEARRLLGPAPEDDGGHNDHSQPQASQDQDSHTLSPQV
UniProt O95159: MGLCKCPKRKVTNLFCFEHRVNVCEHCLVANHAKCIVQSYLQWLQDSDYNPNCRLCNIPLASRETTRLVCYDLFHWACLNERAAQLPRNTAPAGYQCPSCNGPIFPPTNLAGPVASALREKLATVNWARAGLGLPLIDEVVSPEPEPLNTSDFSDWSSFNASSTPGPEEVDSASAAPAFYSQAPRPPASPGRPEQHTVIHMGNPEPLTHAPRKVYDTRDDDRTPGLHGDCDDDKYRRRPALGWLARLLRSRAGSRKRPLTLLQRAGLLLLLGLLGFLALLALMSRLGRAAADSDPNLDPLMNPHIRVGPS
UniProt Q6N043: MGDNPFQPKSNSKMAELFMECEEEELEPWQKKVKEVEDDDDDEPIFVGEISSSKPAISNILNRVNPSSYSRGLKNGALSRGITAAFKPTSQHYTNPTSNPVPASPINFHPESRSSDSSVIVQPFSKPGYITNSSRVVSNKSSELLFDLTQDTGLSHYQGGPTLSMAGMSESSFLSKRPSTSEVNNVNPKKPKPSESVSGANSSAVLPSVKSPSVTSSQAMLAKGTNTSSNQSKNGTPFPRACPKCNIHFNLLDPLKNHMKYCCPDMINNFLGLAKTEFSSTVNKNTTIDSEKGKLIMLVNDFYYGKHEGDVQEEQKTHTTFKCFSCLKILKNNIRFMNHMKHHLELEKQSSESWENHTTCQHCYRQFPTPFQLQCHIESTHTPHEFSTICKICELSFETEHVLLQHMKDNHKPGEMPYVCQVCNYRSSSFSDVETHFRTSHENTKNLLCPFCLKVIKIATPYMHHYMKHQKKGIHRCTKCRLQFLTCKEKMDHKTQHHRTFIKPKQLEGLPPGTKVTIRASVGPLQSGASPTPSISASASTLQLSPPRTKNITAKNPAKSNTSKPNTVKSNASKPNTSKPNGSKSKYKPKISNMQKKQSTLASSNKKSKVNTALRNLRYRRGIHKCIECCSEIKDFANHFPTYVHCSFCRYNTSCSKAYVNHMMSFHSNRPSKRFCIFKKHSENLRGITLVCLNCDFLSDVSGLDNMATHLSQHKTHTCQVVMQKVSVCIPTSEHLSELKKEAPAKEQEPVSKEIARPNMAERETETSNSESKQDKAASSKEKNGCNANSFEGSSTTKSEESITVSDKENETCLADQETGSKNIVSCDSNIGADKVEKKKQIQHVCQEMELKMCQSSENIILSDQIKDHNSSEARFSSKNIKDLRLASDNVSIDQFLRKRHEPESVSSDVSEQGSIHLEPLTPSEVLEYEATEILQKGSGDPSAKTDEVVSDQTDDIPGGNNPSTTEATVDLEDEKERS
UniProt Q6ZN55: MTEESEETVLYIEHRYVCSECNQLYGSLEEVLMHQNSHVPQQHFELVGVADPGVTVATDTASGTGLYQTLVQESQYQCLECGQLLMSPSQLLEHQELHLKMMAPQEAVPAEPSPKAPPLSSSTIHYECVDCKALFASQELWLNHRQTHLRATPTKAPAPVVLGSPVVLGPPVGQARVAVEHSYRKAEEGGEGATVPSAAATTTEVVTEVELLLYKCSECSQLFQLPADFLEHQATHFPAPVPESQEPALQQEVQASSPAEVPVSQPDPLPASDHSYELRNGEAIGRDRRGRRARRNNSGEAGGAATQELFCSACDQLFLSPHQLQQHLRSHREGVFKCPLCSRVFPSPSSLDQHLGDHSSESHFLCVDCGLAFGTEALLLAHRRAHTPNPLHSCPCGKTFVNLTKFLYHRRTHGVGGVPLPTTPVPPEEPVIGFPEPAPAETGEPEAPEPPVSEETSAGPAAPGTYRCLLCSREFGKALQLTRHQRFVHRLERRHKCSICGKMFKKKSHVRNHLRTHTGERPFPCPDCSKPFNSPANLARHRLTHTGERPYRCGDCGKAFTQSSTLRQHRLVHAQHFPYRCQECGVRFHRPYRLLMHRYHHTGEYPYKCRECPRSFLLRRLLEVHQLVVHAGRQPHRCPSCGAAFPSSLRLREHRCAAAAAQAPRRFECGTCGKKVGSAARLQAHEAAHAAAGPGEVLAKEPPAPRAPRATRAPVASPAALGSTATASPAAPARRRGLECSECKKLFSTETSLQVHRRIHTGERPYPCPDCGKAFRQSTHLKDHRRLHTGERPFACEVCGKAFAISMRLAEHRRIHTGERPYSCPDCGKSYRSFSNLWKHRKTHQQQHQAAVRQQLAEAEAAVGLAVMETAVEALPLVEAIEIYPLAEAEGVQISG
UniProt O15015: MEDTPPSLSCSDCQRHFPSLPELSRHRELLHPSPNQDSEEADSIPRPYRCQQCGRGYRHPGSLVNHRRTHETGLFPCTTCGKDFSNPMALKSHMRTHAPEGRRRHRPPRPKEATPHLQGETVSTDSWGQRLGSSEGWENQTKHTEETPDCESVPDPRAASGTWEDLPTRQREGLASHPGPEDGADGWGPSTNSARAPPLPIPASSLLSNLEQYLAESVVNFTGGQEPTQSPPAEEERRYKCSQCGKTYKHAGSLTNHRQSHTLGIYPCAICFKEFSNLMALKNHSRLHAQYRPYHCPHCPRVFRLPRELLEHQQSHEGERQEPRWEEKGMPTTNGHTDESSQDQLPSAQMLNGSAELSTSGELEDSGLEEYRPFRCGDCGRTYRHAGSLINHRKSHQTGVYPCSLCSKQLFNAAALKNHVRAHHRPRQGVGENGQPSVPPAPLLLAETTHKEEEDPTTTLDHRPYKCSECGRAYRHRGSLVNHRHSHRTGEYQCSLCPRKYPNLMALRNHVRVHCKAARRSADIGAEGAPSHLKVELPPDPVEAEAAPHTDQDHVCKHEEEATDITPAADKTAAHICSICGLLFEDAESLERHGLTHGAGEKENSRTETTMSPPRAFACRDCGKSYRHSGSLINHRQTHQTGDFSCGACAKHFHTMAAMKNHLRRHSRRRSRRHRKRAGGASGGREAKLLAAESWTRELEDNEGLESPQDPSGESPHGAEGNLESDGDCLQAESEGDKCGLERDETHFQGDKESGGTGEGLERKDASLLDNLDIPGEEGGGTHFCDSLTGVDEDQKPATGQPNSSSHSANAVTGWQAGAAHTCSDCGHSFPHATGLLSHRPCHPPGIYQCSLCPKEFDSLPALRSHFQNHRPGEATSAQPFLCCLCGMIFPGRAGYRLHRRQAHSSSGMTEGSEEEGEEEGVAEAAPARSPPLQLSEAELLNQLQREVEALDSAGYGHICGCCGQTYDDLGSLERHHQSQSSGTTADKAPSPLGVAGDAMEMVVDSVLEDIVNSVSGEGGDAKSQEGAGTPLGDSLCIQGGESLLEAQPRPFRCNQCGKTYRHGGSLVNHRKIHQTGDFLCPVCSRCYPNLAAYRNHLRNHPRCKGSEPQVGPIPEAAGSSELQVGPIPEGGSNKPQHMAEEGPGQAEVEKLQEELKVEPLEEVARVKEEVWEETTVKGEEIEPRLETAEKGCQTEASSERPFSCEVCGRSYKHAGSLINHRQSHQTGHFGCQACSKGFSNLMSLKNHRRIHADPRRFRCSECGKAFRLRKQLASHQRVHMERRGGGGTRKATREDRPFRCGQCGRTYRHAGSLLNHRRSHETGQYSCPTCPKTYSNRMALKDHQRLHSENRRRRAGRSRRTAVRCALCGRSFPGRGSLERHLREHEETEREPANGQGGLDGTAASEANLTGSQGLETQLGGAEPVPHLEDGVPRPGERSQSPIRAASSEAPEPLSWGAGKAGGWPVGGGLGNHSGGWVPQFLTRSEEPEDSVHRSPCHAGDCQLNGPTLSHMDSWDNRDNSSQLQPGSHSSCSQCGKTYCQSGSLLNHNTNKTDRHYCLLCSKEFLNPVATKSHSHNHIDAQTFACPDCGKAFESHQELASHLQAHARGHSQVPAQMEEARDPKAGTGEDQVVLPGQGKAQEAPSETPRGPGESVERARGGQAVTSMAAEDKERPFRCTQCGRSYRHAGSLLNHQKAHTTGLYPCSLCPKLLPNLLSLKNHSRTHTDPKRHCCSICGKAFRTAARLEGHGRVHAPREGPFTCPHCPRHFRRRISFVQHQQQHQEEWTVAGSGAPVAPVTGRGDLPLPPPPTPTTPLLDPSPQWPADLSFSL

Compound: Cc1cc(ccc1-c1ccccc1)C(=O)N1CCCN(CC1)C(=O)CCl [compound 10]
Assay: probe-labelled cysteine peptide fold change vs DMSO (competition) (log2 fold change); higher = less target engagement (more negative = stronger competition)
Conditions: THP-1, incubation time: 4 h
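Note: competitive profiling in live THP-1 cells: cysteine peptides tagged with an iodoacetamide desthiobiotin (IA-DTB) probe, intensity after compound treatment relative to DMSO-treated cells.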

| Target | probe-labelled cysteine peptide fold change (10 µM) | probe-labelled cysteine peptide fold change (50 µM) |
| --- | --- | --- |
| ZMYND8_Q9ULU4_103_EGQVLCCELCPR (UniProt Q9ULU4) | 0.0908 | 0.432 |
| ZNF768_Q9H5H4_378_THSHERPYSCTECGK (UniProt Q9H5H4) | 0.271 | -0.00926 |
| ZMYM2_Q9UBW7_755_DFCSEDCCK (UniProt Q9UBW7) | 0.0133 | -0.919 |
| ZNF687_Q8N1G0_566_IEVTCNHCAR (UniProt Q8N1G0) | -0.156 | 0.186 |
| ZNF598_Q86UK7_150_LCLQHLQIFTYER (UniProt Q86UK7) | 0.025 | 0.016 |
| ZNF667_Q5HYK9_146_GHSGKKPLKCNDCGK (UniProt Q5HYK9) | 0.034 | 0.501 |
| ZNF512_Q96ME7_430_AHLGSCTLGNFVAGK (UniProt Q96ME7) | -0.105 | 0.02 |
| ZNF691_Q5VV52_176_CQESFR (UniProt Q5VV52) | -0.0275 | -0.0396 |
| ZNF592_Q92610_648_GLVMQCSQLLVK (UniProt Q92610) | 0.0258 | -0.148 |
| ZNF428_Q96B54_111_SPLGEAPPGTPPCR (UniProt Q96B54) | -0.0593 | -0.657 |
| ZFY_P08048_549_NFPHICVECGK (UniProt P08048) | -0.0111 | -0.0643 |
| ZNF579_Q8NAF0_77_LSHSGLRPHACPLCPK (UniProt Q8NAF0) | 0.112 | -0.0195 |
| ZNF622_Q969S3_6+9_ATYTCITCR (UniProt Q969S3) | -0.218 | -0.141 |
| ZNF451_Q9Y4E5_133_LCVDQWLK (UniProt Q9Y4E5) | 0.00075 | -0.288 |
| ZNF316_A6NFI3_808_AHTGERPYACGECGR (UniProt A6NFI3) | 0.0636 | 0.146 |
| ZNF598_Q86UK7_33_GGGSCVLCCGDLEATALGR (UniProt Q86UK7) | -0.0671 | 0.0981 |
| ZMYM4_Q5VZL5_690_CQHCNR (UniProt Q5VZL5) | 0.26 | -0.0447 |

| Target | probe-labelled cysteine peptide fold change (10 µM) | probe-labelled cysteine peptide fold change (50 µM) |
| --- | --- | --- |
| ZFR_Q96KR1_340_ISCAGPQTYK (UniProt Q96KR1) | -0.204 | -0.163 |
| ZFR_Q96KR1_974_RVFECISSGIILK (UniProt Q96KR1) | 0.0134 | -0.0405 |
| ZNF592_Q92610_592_IHVPASGYCCLECGDAFALEK (UniProt Q92610) | -0.0351 | -0.192 |
| ZFPL1_O95159_16_VTNLFCFEHR (UniProt O95159) | 0.0473 | 0.0924 |
| ZNF131_P52739_9_MEAEETMECLQEFPEHHK (UniProt P52739) | -0.115 | -0.179 |
| ZMYND8_Q9ULU4_196_MKQPGTDAFQKPVPLEQHPDYAEYIFHPMDLCTLEK (UniProt Q9ULU4) | -0.325 | -0.838 |
| ZNF280D_Q6N043_827_NIVSCDSNIGADKVEK (UniProt Q6N043) | -0.428 | -0.72 |
| ZNF207_O43670_54_KLYTGPGLAIHCMQVHK (UniProt O43670) | -0.0865 | -0.652 |
| ZFPL1_O95159_70_LVCYDLFHWACLNER (UniProt O95159) | -0.0626 | -0.0494 |
| ZNF574_Q6ZN55_394+396_AHTPNPLHSCPCGK (UniProt Q6ZN55) | -0.0114 | -0.363 |
| ZNF280D_Q6N043_323_CFSCLK (UniProt Q6N043) | -0.0325 | -4.3e-05 |
| ZNF598_Q86UK7_864_SAWQATTQQAGLDCR (UniProt Q86UK7) | 0.0264 | -0.0742 |
| ZNF646_O15015_1193_GCQTEASSERPFSCEVCGR (UniProt O15015) | -0.00431 | 0.0379 |
| ZNF106_Q9H2Y7_1620_VLCLHSR (UniProt Q9H2Y7) | -0.0608 | 0.198 |
| ZNF143_P52747_274_SHTGDRPYQCEHAGCGK (UniProt P52747) | 0.107 | 0.555 |
| ZNF460_Q14592_450_PYVCIQCGK (UniProt Q14592) | 0.0308 | -0.473 |
| ZNF217_O75362_286_CIPQLDPFTTFQAWQLATK (UniProt O75362) | -0.173 | -0.386 |

No new results follow: entries from further up.

| Target | probe-labelled cysteine peptide fold change (10 µM) | probe-labelled cysteine peptide fold change (50 µM) |
| --- | --- | --- |
| ZNF280D_Q6N043_827_NIVSCDSNIGADKVEK (UniProt Q6N043) | -0.428 | -0.72 |
| ZNF207_O43670_54_KLYTGPGLAIHCMQVHK (UniProt O43670) | -0.0865 | -0.652 |
| ZFPL1_O95159_70_LVCYDLFHWACLNER (UniProt O95159) | -0.0626 | -0.0494 |
| ZNF574_Q6ZN55_394+396_AHTPNPLHSCPCGK (UniProt Q6ZN55) | -0.0114 | -0.363 |
| ZNF280D_Q6N043_323_CFSCLK (UniProt Q6N043) | -0.0325 | -4.3e-05 |
| ZNF598_Q86UK7_864_SAWQATTQQAGLDCR (UniProt Q86UK7) | 0.0264 | -0.0742 |
| ZNF646_O15015_1193_GCQTEASSERPFSCEVCGR (UniProt O15015) | -0.00431 | 0.0379 |
